Our source for the T/C and survivor count values is PubChem BioAssay AID256 (DTP/NCI, 2004).

The test system of the assay is CD2F1 mice, L1210 leukemia ip, survival T/C. Description: NCI In Vivo Anticancer Drug Screen. Data for tumor model L1210 Leukemia (intraperitoneal) in CD2F1 (CDF1) mice. As to conditions: higher T/C = longer survival. On the procedure: The antitumor activity of compounds was measured in mice bearing transplantable tumors. Survival or tumor size were measured and the results are expressed as the measurement made in the treated group (T) divided by the measurement made in the vehicle treated control group (C). The tumor model used in this assay is L1210 Leukemia (intraperitoneal) in CD2F1 (CDF1) mice

Setting [1] is: T/C endpoint: mean survival time, dose: 12.5 mg/kg/injection, schedule: Q01DX009 (ip), vehicle: Klucel (hydroxypropylcellulose) (HPC).
Setting [2] is: T/C endpoint: mean survival time, dose: 25.0 mg/kg/injection, schedule: Q01DX009 (ip), vehicle: Klucel (hydroxypropylcellulose) (HPC).
[3] abbreviates: T/C endpoint: mean survival time, dose: 50.0 mg/kg/injection, schedule: Q01DX009 (ip), vehicle: Klucel (hydroxypropylcellulose) (HPC).
[4] abbreviates: T/C endpoint: mean survival time, dose: 100.0 mg/kg/injection, schedule: Q01DX009 (ip), vehicle: Klucel (hydroxypropylcellulose) (HPC).
Where [5] appears, read: T/C endpoint: mean survival time, dose: 200.0 mg/kg/injection, schedule: Q01DX009 (ip), vehicle: Klucel (hydroxypropylcellulose) (HPC).
[6] abbreviates: T/C endpoint: mean survival time, dose: 400.0 mg/kg/injection, schedule: Q01DX009 (ip), vehicle: Klucel (hydroxypropylcellulose) (HPC).
[7] abbreviates: T/C endpoint: mean survival time, dose: 62.5 mg/kg/injection, schedule: Q01DX001 (ip), vehicle: DMSO.
Where [8] appears, read: T/C endpoint: mean survival time, dose: 250.0 mg/kg/injection, schedule: Q01DX001 (ip), vehicle: DMSO.
Setting [9] is: T/C endpoint: mean survival time, dose: 500.0 mg/kg/injection, schedule: Q01DX001 (ip), vehicle: DMSO.

Molecules are shown by their SMILES. The list shows only some results of the screen, not a fair sample: it covers a few groups of compounds. Other doses and runs of a compound may be missing. T/C is the treated group as % of the vehicle group. Some doses have a count of surviving animals in place of a T/C: the source files T/C as zero there, which appears to mark a toxic dose or a test without result, not a measured value. Some doses without a T/C left all or most animals alive at the check, yet need not have been tolerated: the source hardly ever lists a survival T/C far under the control, and the zero likely stands for such cases as well. Survivors were counted at the toxicity check, usually on the fifth day, unless a day is given; later deaths do not show. Schedule codes are those of the source, taken here to give the interval after Q, in days (D) or hours (H), and the number of doses after X. Some entries were tested several times; the values are given in rising order. Counts like (3×) say how often a value occurs here. Where survival is the endpoint, this PubChem deposit counts one and a half times the control or more as active, and values a quarter to a half above the control carry no call in these data; other NCI protocols may use other cut-offs. Some T/C values are marked as having no survivor count here; that says nothing about deaths at the dose. Some T/C values are followed by the survivors on the day toxicity was checked, most often the fifth; without a count or a note in brackets, all were alive then.

`N#CC(C#N)=Cc1ccc(N(CCCl)CCCl)cc1`: the T/C reads like this: under setting [1], 97 % of control [survivor count not shown]; under setting [2], 93 % of control [survivor count not shown]; under setting [3], 91 % of control [survivor count not shown]; under setting [4], 95 % of control [survivor count not shown]; under setting [5], 97 % of control [survivor count not shown]; under setting [6], 95 % of control [survivor count not shown].
Take `C=CCCOP(N)(=O)N(CCCl)CCCl` (stereo not given): the T/C is, setting by setting: (T/C endpoint: mean survival time, dose: 15.63 mg/kg/injection, schedule: Q01DX001 (ip), vehicle: DMSO) 104 % of control; (T/C endpoint: mean survival time, dose: 31.25 mg/kg/injection, schedule: Q01DX001 (ip), vehicle: DMSO) 95 % of control; under setting [7], 98 % of control; (T/C endpoint: mean survival time, dose: 125.0 mg/kg/injection, schedule: Q01DX001 (ip), vehicle: DMSO) 101 % of control; under setting [8], 97 % of control; under setting [9], 103 % of control [5 of 6 alive]. Besides, the survivor count (T/C endpoint: mean survival time, dose: 1000.0 mg/kg/injection, schedule: Q01DX001 (ip), vehicle: DMSO) is on record as 0 of 6.
For the molecule `NS(=O)(=O)c1ccc(N(CCCl)CCCl)cc1`, the T/C was 97 % of control [survivor count not shown] (T/C endpoint: mean survival time, dose: 3.12 mg/kg/injection, schedule: Q01DX009 (ip), vehicle: Klucel (hydroxypropylcellulose) (HPC)); 100 % of control [survivor count not shown] (2×) (T/C endpoint: mean survival time, dose: 6.25 mg/kg/injection, schedule: Q01DX009 (ip), vehicle: Klucel (hydroxypropylcellulose) (HPC)); 101 [survivor count not shown] and 102 % of control [survivor count not shown] under setting [1]; 95 [survivor count not shown] and 100 % of control [survivor count not shown] (2×) under setting [2]; 97 [survivor count not shown] (2×) and 108 % of control [survivor count not shown] under setting [3]; 94 [survivor count not shown], 97 [survivor count not shown], 100 % of control [survivor count not shown] under setting [4]. Under setting [5], the T/C was 94 [survivor count not shown], 95 [survivor count not shown], 112 % of control [survivor count not shown].
On to `ClCCN(CCCl)c1ccc(Oc2ccccc2)cc1`, for which the T/C was 94 % of control [survivor count not shown] under setting [1]; 97 % of control [survivor count not shown] under setting [2]; 95 % of control [survivor count not shown] under setting [3]; 101 % of control [survivor count not shown] under setting [4]; 101 % of control [survivor count not shown] under setting [5]; 100 % of control [survivor count not shown] under setting [6].
Take `NC1CCCCC1.NP(=O)(O)N(CCCl)CCCl`: the T/C reads like this: (T/C endpoint: mean survival time, dose: 25.0 mg/kg/injection, schedule: Q01DX001 (ip), vehicle: DMSO) 116 [survivor count not shown] and 122 % of control [survivor count not shown]; (T/C endpoint: mean survival time, dose: 25.0 mg/kg/injection, schedule: Q01DX001 (ip), vehicle: other) 106 % of control [survivor count not shown]; (T/C endpoint: mean survival time, dose: 25.0 mg/kg/injection, schedule: Q01DX001 (ip), vehicle: saline) 113 % of control [survivor count not shown]; (T/C endpoint: mean survival time, dose: 25.0 mg/kg/injection, schedule: Q01DX001 (ip), vehicle: water) 122 % of control [survivor count not shown]; (T/C endpoint: mean survival time, dose: 31.25 mg/kg/injection, schedule: Q01DX001 (ip), vehicle: DMSO, evaluated on day 30) 127 and 130 % of control; (T/C endpoint: mean survival time, dose: 31.25 mg/kg/injection, schedule: Q01DX001 (ip), vehicle: DMSO, evaluated on day 45) 130 % of control. The T/C is 118 % of control (T/C endpoint: mean survival time, dose: 31.25 mg/kg/injection, schedule: Q01DX001 (ip), vehicle: DMSO, evaluated on day 60); 125 % of control [survivor count not shown] (T/C endpoint: mean survival time, dose: 31.25 mg/kg/injection, schedule: Q01DX001 (ip), vehicle: DMSO, evaluation day not shown); 129 % of control (T/C endpoint: mean survival time, dose: 31.25 mg/kg/injection, schedule: Q01DX001 (ip), vehicle: water); 128 [survivor count not shown] and 136 % of control [survivor count not shown] (T/C endpoint: mean survival time, dose: 50.0 mg/kg/injection, schedule: Q01DX001 (ip), vehicle: DMSO); 117 % of control [survivor count not shown] (T/C endpoint: mean survival time, dose: 50.0 mg/kg/injection, schedule: Q01DX001 (ip), vehicle: other); 134 % of control [survivor count not shown] (T/C endpoint: mean survival time, dose: 50.0 mg/kg/injection, schedule: Q01DX001 (ip), vehicle: saline). For the same molecule, the T/C (T/C endpoint: mean survival time, dose: 50.0 mg/kg/injection, schedule: Q01DX001 (ip), vehicle: water) is 132 % of control [survivor count not shown]; the T/C under setting [7] was 119 % of control; the T/C (T/C endpoint: mean survival time, dose: 62.5 mg/kg/injection, schedule: Q01DX001 (ip), vehicle: water) is 121 % of control; the T/C (T/C endpoint: mean survival time, dose: 100.0 mg/kg/injection, schedule: Q01DX001 (ip), vehicle: DMSO) is 124 % of control [survivor count not shown]; the T/C (T/C endpoint: mean survival time, dose: 100.0 mg/kg/injection, schedule: Q01DX001 (ip), vehicle: other) is 128 % of control [survivor count not shown]; the T/C (T/C endpoint: mean survival time, dose: 100.0 mg/kg/injection, schedule: Q01DX001 (ip), vehicle: water) is 135 % of control [survivor count not shown]. Also, the T/C is, setting by setting: (T/C endpoint: mean survival time, dose: 250.0 mg/kg/injection, schedule: Q01DX001 (ip), vehicle: water) 108 % of control [5 of 6 alive]; (T/C endpoint: mean survival time, dose: 400.0 mg/kg/injection, schedule: Q01DX001 (ip), vehicle: DMSO) 130 % of control [survivor count not shown]; (T/C endpoint: mean survival time, dose: 400.0 mg/kg/injection, schedule: Q01DX001 (ip), vehicle: other) 87 % of control [survivor count not shown]; (T/C endpoint: median survival time, dose: 25.0 mg/kg/injection, schedule: Q01DX001 (ip), vehicle: water) 124 % of control; (T/C endpoint: median survival time, dose: 50.0 mg/kg/injection, schedule: Q01DX001 (ip), vehicle: water) 106 and 123 % of control; (T/C endpoint: median survival time, dose: 100.0 mg/kg/injection, schedule: Q01DX001 (ip), vehicle: water) 118 and 128 % of control. Under “T/C endpoint: median survival time, dose: 200.0 mg/kg/injection, schedule: Q01DX001 (ip), vehicle: water”, the T/C was 126 % of control. The survivor count reads like this: under setting [8], 4 of 6; under setting [9], 0 of 6, 2 of 6, 5 of 6 (2×); (T/C endpoint: mean survival time, dose: 500.0 mg/kg/injection, schedule: Q01DX001 (ip), vehicle: water) 0 of 6 and 3 of 6 (2×); (T/C endpoint: median survival time, dose: 800.0 mg/kg/injection, schedule: Q01DX001 (ip), vehicle: water) 6 of 6.
